Data set [1] is described as follows: general procedure: Fmoc solid-phase peptide synthesis; Wang resin; HCTU/NMM. Particulars: whole synthesis, RP-HPLC, scale 0.1 mmol.
The nature of data set [2]: general procedure: Fmoc solid-phase peptide synthesis; Wang resin (tryptophan preloaded 0.59 mmol/g; alanine preloaded 0.57 mmol/g); HCTU/NMM. Particulars: whole synthesis, scale of the general procedure 0.1 mmol.

“negative peptide (NGVHATKSGASVNWGEAFSA; Control Leucocin A fragment)”: in data set [1], the “final HPLC purity” value is recorded as above 95%. The substance further gave an isolated yield in data set [2] of 75%.
“Leucocin A (KYYGNGVHCTKSGCSVNWGEAFSAGVHRLANGGNGFW; immobilized; 37 amino acid Leucocin A)”: the “final HPLC purity” value in data set [1] is on record as above 95%. Moreover, the isolated yield in data set [2] stood at 60%.

The values are drawn from patent publication US11597962B2 (priority 2017, dated 2023).
